# Measured values: PMC10120120
# Where a chain is given by its changes, count along the chain named. These are yes or no findings as the source states them, for the method shown. Binding seen in cells or lysates may run through a third protein. Some results given as binding are weak or reduced against the parent protein; the word gives no strength. Where a sequence is shown, tags or fusion partners need not be part of it.
# Legend:
# [1] = target: T1, FLAG-GSDME (D270A)-HA (human) (UniProt O60443); test: co-IP; HEK293FT cells transfected with both plasmids for 24 h; IP with HA antibody, protein A beads; IP lysis buffer 20 mM Tris-HCl pH 7.5, 150 mM NaCl, 1% Triton; Western blot (Fig. 3D: EGFR and HA antibodies; Fig. 3H: FLAG and HA antibodies)
# T1 sequence: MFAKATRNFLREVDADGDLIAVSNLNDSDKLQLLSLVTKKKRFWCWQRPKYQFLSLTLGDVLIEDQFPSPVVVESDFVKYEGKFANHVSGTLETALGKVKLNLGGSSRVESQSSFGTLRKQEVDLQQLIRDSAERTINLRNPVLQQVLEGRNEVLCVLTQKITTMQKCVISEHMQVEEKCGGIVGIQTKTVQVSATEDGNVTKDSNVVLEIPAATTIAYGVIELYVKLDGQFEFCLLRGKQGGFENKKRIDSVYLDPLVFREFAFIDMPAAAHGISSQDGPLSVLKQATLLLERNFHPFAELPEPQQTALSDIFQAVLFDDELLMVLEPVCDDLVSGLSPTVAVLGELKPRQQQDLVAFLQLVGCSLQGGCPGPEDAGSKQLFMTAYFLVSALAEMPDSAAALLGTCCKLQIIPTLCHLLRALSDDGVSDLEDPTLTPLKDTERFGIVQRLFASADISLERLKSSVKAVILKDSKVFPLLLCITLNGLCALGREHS
# [2] = target: T2, FLAG-GSDME-HA (wild type gasdermin E, full length) (human) (UniProt O60443); test: as above
# T2 sequence: T1 sequence with A270D
# [3] = target: T2, FLAG-GSDME-HA (wild type gasdermin E, full length) (human); test: co-IP; HEK293FT cells transfected with both plasmids for 24 h; IP with FLAG antibody; Western blot with HA and FLAG antibodies (Fig. 3E)
# [4] = target: T1, FLAG-GSDME (D270A)-HA (human); test: co-IP; H1299 cells transfected with GSDME plasmids for 24 h, with or without 4 uM doxorubicin for 8 h; IP with HA antibody; Western blot with EGFR and GSDME antibodies (Fig. 3F); EGFR endogenous
# [5] = target: T2, FLAG-GSDME-HA (wild type gasdermin E, full length) (human); test: as above
substance,measurement,setting,value
FLAG-EGFR (epidermal growth factor receptor) (from UniProt P00533 25-1210),binding,[1],binds
same,binding,[2],binds
HA-EGFR (from UniProt P00533 25-1210) (receptor),binding,[3],binds
"EGFR, endogenous in H1299 cells (from UniProt P00533 25-1210) (receptor)",binding,[4],binds
same,binding,[5],binds
EGFR cytoplasmic fragment (CT) (from UniProt P00533 669-1210) (domain or fragment),binding,[2],binds
